These are yes or no findings as the source states them, for the method shown. Some entries that bind do so weakly or less than the wild type.
Assays:
[1] = target: native mouse PDGF receptor on BALB/c 3T3 cells (mouse) (UniProt P05622); assay: displacement of 125I-PDGF from BALB/c 3T3 cells
[2] = target: type B human PDGF receptor (B-hPDGF-R) on transfected CHO cells (CHO-HR5) (human) (UniProt P09619); assay: displacement of 125I-PDGF from CHO-HR5 cells; AA of lower affinity than BB

Sequences of proteins named here, by UniProt entry; tags and fusion partners are left off. Residues count along the entry.
UniProt P05622, residues 32-1098: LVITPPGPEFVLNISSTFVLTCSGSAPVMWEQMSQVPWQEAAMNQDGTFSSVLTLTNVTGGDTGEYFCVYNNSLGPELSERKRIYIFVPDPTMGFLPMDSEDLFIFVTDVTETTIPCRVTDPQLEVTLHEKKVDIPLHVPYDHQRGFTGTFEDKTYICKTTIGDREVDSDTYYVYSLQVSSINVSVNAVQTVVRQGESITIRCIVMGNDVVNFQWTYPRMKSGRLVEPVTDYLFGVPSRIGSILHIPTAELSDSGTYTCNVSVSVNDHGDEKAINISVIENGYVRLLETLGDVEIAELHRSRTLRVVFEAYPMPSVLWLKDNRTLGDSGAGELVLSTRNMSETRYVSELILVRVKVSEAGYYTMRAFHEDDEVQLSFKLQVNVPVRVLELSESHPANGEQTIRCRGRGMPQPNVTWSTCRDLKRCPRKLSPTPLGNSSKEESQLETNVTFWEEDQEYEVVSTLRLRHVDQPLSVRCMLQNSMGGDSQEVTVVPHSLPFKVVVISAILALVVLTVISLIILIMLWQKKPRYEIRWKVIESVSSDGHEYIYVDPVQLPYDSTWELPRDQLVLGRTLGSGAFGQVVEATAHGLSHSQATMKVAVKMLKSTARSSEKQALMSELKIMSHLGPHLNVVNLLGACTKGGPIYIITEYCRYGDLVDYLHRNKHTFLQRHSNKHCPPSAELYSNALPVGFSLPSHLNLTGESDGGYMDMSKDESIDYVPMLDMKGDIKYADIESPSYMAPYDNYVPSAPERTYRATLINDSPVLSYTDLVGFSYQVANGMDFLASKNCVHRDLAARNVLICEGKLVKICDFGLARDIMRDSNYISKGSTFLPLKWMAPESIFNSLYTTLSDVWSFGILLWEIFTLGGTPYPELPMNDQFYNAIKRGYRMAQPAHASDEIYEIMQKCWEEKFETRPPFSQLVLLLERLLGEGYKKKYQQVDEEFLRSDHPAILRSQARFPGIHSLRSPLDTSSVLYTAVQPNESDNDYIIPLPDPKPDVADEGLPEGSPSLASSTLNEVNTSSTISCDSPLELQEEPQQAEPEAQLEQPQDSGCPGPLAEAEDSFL

| binding [1] | binding [2] | Substance |
| --- | --- | --- |
| binds |  | PDGF BB homodimer (recombinant) (from UniProt P01127 82-190) (ligand) |
| binds | binds | human recombinant PDGF AA homodimer (yeast-derived) (from UniProt P04085 87-211) (ligand) |

Source: US6372438
